Structures can show the parent of a compound that is named as a salt. Some of the results follow. Single values are uncertain here, since repeats match poorly.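 In a drug-repurposing library screen, luminescence reads luciferase driven by eight TEAD-binding elements, stably integrated into human kidney-derived cells. Compounds scoring over five robust Z scores above the plate mean are called hits.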
Test system: HEK293A TEAD-LUC reporter
Assay: TEAD-luciferase reporter activity (YAP activation), robust Z score vs plate; higher = stronger YAP/TEAD activation
Settings: 24 h

CC1CC2C3CCC4=CC(=O)C=C[C@]4(C)C3(F)C(O)C[C@]2(C)C1(O)C(=O)COC(=O)c1cccc(S(=O)(=O)[O-])c1 (stereo partly drawn)
TEAD-luciferase reporter activity (compound concentration: 200 nM): inactive: 1.85
TEAD-luciferase reporter activity (compound concentration: 2 uM): inactive: 3.53
TEAD-luciferase reporter activity (compound concentration: 10 uM): active: 5.94

N#Cc1ccc(Cn2cncc2CN2CCN(c3cccc(Cl)c3)C(=O)C2)cc1Oc1ccccc1 [Pharmaprojects No. 6518]
TEAD-luciferase reporter activity (compound concentration: 200 nM): inactive: -1.51
TEAD-luciferase reporter activity (compound concentration: 2 uM): inactive: -1.64
TEAD-luciferase reporter activity (compound concentration: 10 uM): inactive: -1.9

C[C@H](C(=O)N(C)O)c1ccc2cc(OCc3ccc4ccccc4n3)ccc2c1
TEAD-luciferase reporter activity (compound concentration: 200 nM): inactive: -0.722
TEAD-luciferase reporter activity (compound concentration: 2 uM): inactive: -0.971
TEAD-luciferase reporter activity (compound concentration: 10 uM): inactive: -0.601

COC(=O)c1cc(O)cc(OC)c1C(=O)c1c(O)cc(C)cc1O
TEAD-luciferase reporter activity (compound concentration: 200 nM): inactive: 1.09
TEAD-luciferase reporter activity (compound concentration: 2 uM): inactive: -0.666
TEAD-luciferase reporter activity (compound concentration: 10 uM): inactive: 0.32

CC(C)(COC(=O)Nc1ccccc1)COC(=O)Nc1ccccc1
TEAD-luciferase reporter activity (compound concentration: 200 nM): inactive: -1.26
TEAD-luciferase reporter activity (compound concentration: 2 uM): inactive: 0.624
TEAD-luciferase reporter activity (compound concentration: 10 uM): inactive: 2.61

C[C@@H]1C[C@H]2[C@@H]3C[C@H](F)C4=CC(=O)C=C[C@]4(C)[C@@]3(F)[C@@H](O)C[C@]2(C)[C@@]1(O)C(=O)SCCl
TEAD-luciferase reporter activity (compound concentration: 200 nM): inactive: -1.05
TEAD-luciferase reporter activity (compound concentration: 2 uM): inactive: 0.369
TEAD-luciferase reporter activity (compound concentration: 10 uM): inactive: 0.944

Cc1ccc(S(=O)(=O)Oc2ccc(O)c(S(=O)(=O)O)c2)cc1 [sultosilic acid piperazine]
TEAD-luciferase reporter activity (compound concentration: 200 nM): inactive: -0.15
TEAD-luciferase reporter activity (compound concentration: 2 uM): inactive: -0.0785
TEAD-luciferase reporter activity (compound concentration: 10 uM): inactive: -0.337

O=C(NC1CCN(Cc2cccc(-c3ccc(F)c(F)c3)c2)CC1)c1ccccc1
TEAD-luciferase reporter activity (compound concentration: 200 nM): inactive: 3.14
TEAD-luciferase reporter activity (compound concentration: 10 uM): active: 6.77

CCCCN1C[C@H](O)[C@@H](O)[C@@H](O)[C@H]1CO [Lucerastat]
TEAD-luciferase reporter activity (compound concentration: 200 nM): inactive: -0.33
TEAD-luciferase reporter activity (compound concentration: 2 uM): inactive: 0.0191
TEAD-luciferase reporter activity (compound concentration: 10 uM): inactive: -0.573

Cc1ccc2occ(-c3nnn[nH]3)c(=O)c2c1
TEAD-luciferase reporter activity (compound concentration: 200 nM): inactive: 0.0452
TEAD-luciferase reporter activity (compound concentration: 2 uM): inactive: 4.46
TEAD-luciferase reporter activity (compound concentration: 10 uM): inactive: 1.08

CCCCCC(O)CC(=O)CCc1ccc(O)c(OC)c1 (stereo not drawn) [[6]-gingerol]
TEAD-luciferase reporter activity (compound concentration: 2 uM): inactive: 1.5

CCCCCC(O)CC(=O)CCc1ccc(O)c(OC)c1 (stereo not drawn) [6-Gingerol]
TEAD-luciferase reporter activity (compound concentration: 200 nM): inactive: 0.521
TEAD-luciferase reporter activity (compound concentration: 2 uM): inactive: 3.79
TEAD-luciferase reporter activity (compound concentration: 10 uM): inactive: -0.117

CC(=O)NCC1CN(c2ccc(C(C)=O)cc2)C(=O)O1 (stereo not drawn)
TEAD-luciferase reporter activity (compound concentration: 200 nM): inactive: 2.31
TEAD-luciferase reporter activity (compound concentration: 2 uM): inactive: 0.177
TEAD-luciferase reporter activity (compound concentration: 10 uM): inactive: -0.893

CN(C)CC1CCn2cc(c3ccccc32)C2=C(C(=O)NC2=O)c2cn(c3ccccc23)CCO1 (stereo not drawn) [Ruboxistaurin hydrochloride]
TEAD-luciferase reporter activity (compound concentration: 200 nM): inactive: -0.359
TEAD-luciferase reporter activity (compound concentration: 2 uM): inactive: 1.2
TEAD-luciferase reporter activity (compound concentration: 10 uM): inactive: 1.15

CCCCCCCCCCCCCCOc1ccc(C(C)=O)o1
TEAD-luciferase reporter activity (compound concentration: 200 nM): inactive: -1.13
TEAD-luciferase reporter activity (compound concentration: 2 uM): inactive: 0.943
TEAD-luciferase reporter activity (compound concentration: 10 uM): inactive: 1.01

C[C@H](Nc1cc(-c2cnn(C)c2)cc(Nc2cnccn2)n1)c1ccc(F)cc1
TEAD-luciferase reporter activity (compound concentration: 200 nM): inactive: -2.69
TEAD-luciferase reporter activity (compound concentration: 10 uM): inactive: -1.39

C[C@H](N[C@@H](CCc1ccccc1)C(=O)O)C(=O)N1C(C(=O)O)CC2CCCC[C@H]21 (stereo partly drawn) [trandolaprilat]
TEAD-luciferase reporter activity (compound concentration: 200 nM): inactive: 0.051
TEAD-luciferase reporter activity (compound concentration: 2 uM): inactive: -0.685
TEAD-luciferase reporter activity (compound concentration: 10 uM): inactive: 0.539

COc1cc(C(=O)NC2CCN(C)CC2)c(F)cc1Nc1ncc2c(n1)N(C1CCCC1)CC(F)(F)C(=O)N2C
TEAD-luciferase reporter activity (compound concentration: 200 nM): inactive: -2.45
TEAD-luciferase reporter activity (compound concentration: 2 uM): inactive: -0.156
TEAD-luciferase reporter activity (compound concentration: 10 uM): inactive: 1.14

Nc1ncc2ncn(CC(CO)CO)c2n1 [Detiviciclovir]
TEAD-luciferase reporter activity (compound concentration: 200 nM): inactive: -0.687
TEAD-luciferase reporter activity (compound concentration: 10 uM): inactive: -0.575

Cc1ccccc1OCC(O)CNCCn1cc(C)c(=O)[nH]c1=O (stereo not drawn) [primidolol]
TEAD-luciferase reporter activity (compound concentration: 200 nM): inactive: -0.515
TEAD-luciferase reporter activity (compound concentration: 2 uM): inactive: -0.839
TEAD-luciferase reporter activity (compound concentration: 10 uM): inactive: 0.217

COC(=O)C1=C(C)NC(C)=C(C(=O)OCCc2ccc(OCC(O)CO)cc2)C1c1cccc([N+](=O)[O-])c1 (stereo not drawn)
TEAD-luciferase reporter activity (compound concentration: 200 nM): inactive: -0.774
TEAD-luciferase reporter activity (compound concentration: 2 uM): inactive: 0.482
TEAD-luciferase reporter activity (compound concentration: 10 uM): inactive: 3.17

CC(C(=O)O)c1ccc2c(c1)Cc1ccccc1-2 (stereo not drawn) [cicloprofen]
TEAD-luciferase reporter activity (compound concentration: 200 nM): inactive: -0.841
TEAD-luciferase reporter activity (compound concentration: 2 uM): inactive: -0.0597
TEAD-luciferase reporter activity (compound concentration: 10 uM): inactive: -0.225

CC1CC2C3CCC4=CC(=O)C=CC4(C)C3(F)C(O)CC2(C)C1(O)C(=O)CCl (stereo not drawn) [clobetasol]
TEAD-luciferase reporter activity (compound concentration: 200 nM): inactive: -1.11
TEAD-luciferase reporter activity (compound concentration: 2 uM): inactive: -0.0877
TEAD-luciferase reporter activity (compound concentration: 10 uM): inactive: 0.451

O=C(O)COc1ccc(CCNS(=O)(=O)c2ccccc2)cc1 [Sulotroban]
TEAD-luciferase reporter activity (compound concentration: 200 nM): inactive: -1.14
TEAD-luciferase reporter activity (compound concentration: 2 uM): inactive: -1.78
TEAD-luciferase reporter activity (compound concentration: 10 uM): inactive: 2.9

OC(CC1c2ccccc2-c2cncn21)C1CCCCC1 (stereo not drawn)
TEAD-luciferase reporter activity (compound concentration: 200 nM): inactive: -1.03
TEAD-luciferase reporter activity (compound concentration: 2 uM): inactive: -1.76
TEAD-luciferase reporter activity (compound concentration: 10 uM): inactive: 0.204

Fc1ccc(-c2nc3n(c2-c2ccncc2)CCS3)cc1
TEAD-luciferase reporter activity (compound concentration: 200 nM): inactive: -1.36
TEAD-luciferase reporter activity (compound concentration: 2 uM): inactive: -0.477
TEAD-luciferase reporter activity (compound concentration: 10 uM): inactive: -0.221

CC(C)(C)c1cc(-c2csc(CN)n2)cc(C(C)(C)C)c1O
TEAD-luciferase reporter activity (compound concentration: 200 nM): inactive: -1.16
TEAD-luciferase reporter activity (compound concentration: 2 uM): inactive: 0.992
TEAD-luciferase reporter activity (compound concentration: 10 uM): inactive: -0.399

Nc1n[nH]cc1-c1cc(Cl)ccc1Oc1cc(F)c(S(=O)(=O)Nc2cscn2)cc1Cl
TEAD-luciferase reporter activity (compound concentration: 200 nM): inactive: -1.71
TEAD-luciferase reporter activity (compound concentration: 2 uM): inactive: -1.1
TEAD-luciferase reporter activity (compound concentration: 10 uM): inactive: 0.762

CN(C)CCCn1c2c(c3ccccc31)CCCCCC2 [Iprindole]
TEAD-luciferase reporter activity (compound concentration: 200 nM): inactive: -0.782
TEAD-luciferase reporter activity (compound concentration: 2 uM): inactive: 2.27
TEAD-luciferase reporter activity (compound concentration: 10 uM): inactive: 3.24

CC(C)CCOC(CN1CCCC1)c1ccccc1 (stereo not drawn)
TEAD-luciferase reporter activity (compound concentration: 200 nM): inactive: -0.986
TEAD-luciferase reporter activity (compound concentration: 2 uM): inactive: -0.438
TEAD-luciferase reporter activity (compound concentration: 10 uM): inactive: -1.47

CC(C)=CCC/C(C)=C/CC/C(C)=C/CC[C@@](C)(O)CCC1=C(C)C(=O)C(C)=C(C)C1=O [Vatiqui]
TEAD-luciferase reporter activity (compound concentration: 200 nM): inactive: -1.37
TEAD-luciferase reporter activity (compound concentration: 2 uM): inactive: -0.58
TEAD-luciferase reporter activity (compound concentration: 10 uM): inactive: 0.175

COc1ccc([C@@H]2Sc3ccccc3N(CCN(C)C)C(=O)[C@@H]2OC(C)=O)cc1 [Diltiazem]
TEAD-luciferase reporter activity (compound concentration: 2 uM): inactive: -0.486

COc1ccc([C@@H]2Sc3ccccc3N(CCN(C)C)C(=O)[C@@H]2OC(C)=O)cc1 [diltiazem]
TEAD-luciferase reporter activity (compound concentration: 2 uM): inactive: -0.885

COc1ccc([C@@H]2Sc3ccccc3N(CCN(C)C)C(=O)[C@@H]2OC(C)=O)cc1
TEAD-luciferase reporter activity (compound concentration: 200 nM): inactive: -0.652
TEAD-luciferase reporter activity (compound concentration: 10 uM): inactive: 1.83

Cc1c(C(C)C)c(=O)n(-c2ccccc2)n1C
TEAD-luciferase reporter activity (compound concentration: 200 nM): inactive: -0.249
TEAD-luciferase reporter activity (compound concentration: 2 uM): inactive: 2.99
TEAD-luciferase reporter activity (compound concentration: 10 uM): active: 7.39

CCCOc1ccc([C@H]2CNC(=O)N2c2ccc3[nH]cnc3c2)cc1
TEAD-luciferase reporter activity (compound concentration: 200 nM): inactive: 0.218
TEAD-luciferase reporter activity (compound concentration: 2 uM): inactive: -0.296
TEAD-luciferase reporter activity (compound concentration: 10 uM): inactive: -0.134

Source: the supplement of paper PMC10735217
